{"source": "paper PMC8591536", "about": "“DNA asymmetry promotes SUMO modification of the single‐stranded DNA‐binding protein RPA” (The EMBO Journal, 2021)", "target": "T1, Siz2∆CT (UniProt Q12216)", "T1 sequence (looked up)": "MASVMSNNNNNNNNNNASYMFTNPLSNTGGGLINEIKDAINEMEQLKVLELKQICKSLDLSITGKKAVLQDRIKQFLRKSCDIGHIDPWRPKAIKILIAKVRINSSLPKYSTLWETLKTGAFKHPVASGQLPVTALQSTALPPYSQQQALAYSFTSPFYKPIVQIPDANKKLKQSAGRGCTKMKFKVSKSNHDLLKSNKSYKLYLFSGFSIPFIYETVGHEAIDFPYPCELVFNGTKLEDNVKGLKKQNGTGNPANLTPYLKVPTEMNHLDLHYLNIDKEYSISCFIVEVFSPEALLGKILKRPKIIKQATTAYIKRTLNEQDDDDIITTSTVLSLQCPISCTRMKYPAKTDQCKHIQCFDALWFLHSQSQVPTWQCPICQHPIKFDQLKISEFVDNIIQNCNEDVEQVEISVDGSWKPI", "experiment": "fluorescence polarization", "settings": "FP: 20 mM HEPES pH 7.5, 125 mM NaCl, 0.1% Tween-20, 23°C, 50 nM DNA (RPA/SUMO-RPA on ss32: 1 nM DNA, plus 5 mM MgCl2, 1 mM DTT), recombinant protein, residues 1-420, protein details: His6-thioredoxin removed with TEV", "note": "Construct, isoform or probe ends are uncertain for at least one entry. A weaker result is weaker than the reference pair of the same experiment. At least one verdict rests on a figure or table, not on a statement of the authors. Protein sequences can lack the tags named with them."}
{"sequence": "TTTTTTTTTTTTTTTTTTTTTTTTTTTTTTTT [6-FAM-ss32 (32dT)]", "values": [{"measurement": "binding result", "setting": "label: 5' 6-FAM, single-stranded DNA", "value": "binds more weakly"}]}
{"sequence": "TTTTTTTTTTTTTTTTTTTTTTTTTTTTTTTTGCTGTAGCTAGTTTTGCTTC / GAAGCAAAACTAGCTACAGC [6-FAM-ss32ds20]", "values": [{"measurement": "binding result", "setting": "label: 5' 6-FAM on strand 2 (rv20)", "value": "binds"}]}
